# The whole screen tested about 200,000 compounds, of which about 25 (0.01%) were called active. Inconclusive results, whose numbers are uncertain, are shown with a selection of clear calls. The call rests on the fitted dose curve; in most records, active means well fitted inhibition curve with a large enough effect in the signal ratio, with a control signal flat (not every such curve was filed as active); inconclusive means small, poorly fitted or top-dose-only effect, or effect the other way, or a change in a side signal; inactive means flat fitted curve, though single readings scatter; the % refers to the signal ratio. Potencies of inconclusive entries are doubtful fits and often do not repeat.
# Experiment: qHTS Assay for Modulators of Lamin A Splicing
# Settings: HeLa LMNA splicing GFP/RFP minigene ratio, 48 h; ratio change, negative = inhibition: at 46.1 µM (top of the series) unless noted
# Procedure, shortened: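 S3 HeLa cells stably expressing lamin A-EGFP splicing minigene plus DsRed2, 600 cells/well, 48 h compound exposure at 37C. Laser-scanning cytometry; analysed as GFP (500-530 nm)/RFP (575-640 nm) total intensity ratio; 0.5% DMSO vehicle.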
# On the % scale 0 is the no-effect control and ±100 the full control effect; potency means the concentration at half of the fitted maximal effect.
SMILES,"ratio change, negative = inhibition",Potency
COc1ccc(CN(C2CCCCC2C)S(=O)(=O)c2ccc(S(=O)(=O)N(C)C)cc2)cc1OC (centres undefined),inconclusive: -24.8%,–
O=C(O)CCC(=O)N1CCN(c2nc(-c3ccccc3Cl)c3cc(Br)ccc3n2)CC1,inactive: 1.28%,–
CCN1CCC(N(Cc2cccc(OC)c2)C(=O)Nc2cccc(C(F)(F)F)c2)CC1,inconclusive: -14% [at 46 µM],–
CCN(CC)c1ccc(C(=O)NCc2ccc3c(c2)CCN3C(=O)c2ccccc2)cc1,inconclusive: -17.1% [at 46 µM],–
Cc1ccc(C2CC2c2n[nH]c(=S)n2-c2ccc(C)cc2)cc1 (centres undefined),inactive: -5.56%,–
Cc1ccc(-c2[nH]ncc2/C=N/n2c(COc3ccccc3)nc3ccccc3c2=O)cc1,–,"inconclusive: 35.5 µM [cytotoxic, single point]"
Cc1ccc(N2CCN(c3ccc(C)cc3)C2c2cccnc2)cc1,inconclusive: -5.34%,–
O=C1CCC(=O)N1c1cccc(OS(=O)(=O)c2ccccc2)c1,inconclusive: -5.14%,–
O=C(Cc1ccc(Cl)cc1)c1c[nH]c(C(=O)NCCCN2CCOCC2)c1,inconclusive: 6.95% [at 9.22 µM],–
C/C(CC(=O)N1CCN(C=O)CC1)=N\NC(=O)c1ccc([N+](=O)[O-])cc1,inconclusive: -33.3% [at 46 µM],–
S=C(NCCNCc1ccccc1)NC1CCCCC1,inconclusive: -42.3% [at 46 µM],–
O=C(c1cn(-c2ccccc2)nc1-c1ccc(F)cc1)N1CCCCC1,inconclusive: 9.13%,–
CN(CC(=O)Nc1ccc(C#N)cc1)Cc1ccc(Cl)cc1Cl,inconclusive: -32%,–
COc1cc(C(=O)NCC(c2ccc(N(C)C)cc2)N2CCc3ccccc32)cc(OC)c1OC (centres undefined),inconclusive: -33.9% [at 46 µM],–
Cc1ccc(S(=O)(=O)NCCCCCC(=O)Nc2ccccc2C)cc1,inactive: -12.4%,–
CN(C)/C=N/C(=S)Nc1ccccc1F,inconclusive: 14.4%,–
COc1cc(C(=O)Nc2nnc(S(=O)(=O)N(C)c3ccccc3)s2)cc(OC)c1OC,inactive: 14.4% [at 46 µM],–
CN1CCN(C(c2ccccc2)c2ccccc2)CC1,inconclusive: -10.1%,–
CCOc1ccc(NS(=O)(=O)c2ccc(N)cc2)cc1,inactive: -5.06%,–
Fc1ccc2nc3n(c2c1F)CCCCCC3,inconclusive: 8.8%,–
c1ccc(CCNc2ncnc3nc[nH]c23)cc1,inactive: -4.09%,–
COc1ccc(OCC(=O)OCC(=O)N2CC(=O)Nc3ccccc32)cc1,inconclusive: 31.3% [at 46 µM],–
CC(=O)Nc1ccc(NC(=O)C(C)Oc2ccc(Cl)cc2Cl)cc1 (centres undefined),inactive: -8.74% [at 46 µM],–
C=CCNC(=O)N1CCc2nc(-c3ccc(OC)cc3C)c3c(c2C1)CO[C@@H](c1ccccc1)C3,inconclusive: 3.18% [at 9.22 µM],–
Cc1nnnn1/C(=C\c1ccccc1)C(=O)OCC(=O)NC(C)(C)C,–,"inconclusive: 11.2 µM [falling, partial curve]"
CCCCCNC(=O)c1c[nH]c2ccc(S(=O)(=O)N3CCC(C)CC3)cc2c1=O,inactive: 12.1% [at 46 µM],–
Cc1sc2nc[nH]c(=S)c2c1-c1ccccc1,inconclusive: 34.7% [at 46 µM],–

# Filtered by structure, those above with an aryl methoxy group
SMILES,"ratio change, negative = inhibition",Potency
COc1ccc(CN(C2CCCCC2C)S(=O)(=O)c2ccc(S(=O)(=O)N(C)C)cc2)cc1OC (centres undefined),inconclusive: -24.8%,–
CCN1CCC(N(Cc2cccc(OC)c2)C(=O)Nc2cccc(C(F)(F)F)c2)CC1,inconclusive: -14% [at 46 µM],–
COc1cc(C(=O)NCC(c2ccc(N(C)C)cc2)N2CCc3ccccc32)cc(OC)c1OC (centres undefined),inconclusive: -33.9% [at 46 µM],–
COc1cc(C(=O)Nc2nnc(S(=O)(=O)N(C)c3ccccc3)s2)cc(OC)c1OC,inactive: 14.4% [at 46 µM],–
COc1ccc(OCC(=O)OCC(=O)N2CC(=O)Nc3ccccc32)cc1,inconclusive: 31.3% [at 46 µM],–
C=CCNC(=O)N1CCc2nc(-c3ccc(OC)cc3C)c3c(c2C1)CO[C@@H](c1ccccc1)C3,inconclusive: 3.18% [at 9.22 µM],–

# More results.

SMILES,"ratio change, negative = inhibition",Potency
CCn1c(=N)c(C(=O)NC)cc2c(=O)n3cccc(C)c3nc21,–,"inconclusive: 17.8 µM [inhibitor, partial curve, poor fit]"
O=C1CC(N2CCN(c3cccc(C(F)(F)F)c3)CC2)C(=O)N1c1ccc(F)cc1 (centres undefined),inactive: 2.11%,–
COc1ccc(Br)cc1CNC(=O)CCNC(=O)Cn1ccc2ccccc2c1=O,inconclusive: -5.59% [at 9.22 µM],–
COc1ccc(/C=C/C(=O)c2ccc(O)cc2)cc1COc1ccc(F)cc1,–,"inconclusive: 35.5 µM [inhibitor, single point]"
CCn1c(COc2ccc3c(c2)CCCC3)nnc1SCC(=O)Nc1ccc(C(=O)OC)cc1,inconclusive: 2.78%,–
CCn1c(SCC(=O)Nc2nc3ccc(OC)cc3s2)nc2c1c(=O)n(C)c(=O)n2C,inconclusive: 3.62%,–
Cc1nnc2ccc(-c3cccc(NS(C)(=O)=O)c3)nn12,inconclusive: -41.9% [at 46 µM],–
CCCc1cnc2c(c1SCC(=O)Nc1ccc([N+](=O)[O-])cc1)c(=O)n(C)c(=O)n2C,inactive: 6.02% [at 46 µM],–
c1cncc(-c2nc3ccccc3[nH]2)c1,inactive: 8.06% [at 0.0737 µM],–
Cc1ccc(C)c(NC(=O)c2cnn(-c3ccc(F)cc3F)c2C2CCNCC2)c1,inconclusive: -27.8% [at 46 µM],–
CC(=O)c1ccc(NC(=O)CSc2nnc3ccc(-c4ccc(F)cc4)nn23)cc1,inconclusive: -3.01% [at 46 µM],–
COc1ccc(C2C(C(C)=O)=C(C)N=c3s/c(=C\c4ccco4)c(=O)n32)c(OC)c1 (centres undefined),inactive: 18.8%,–
CCC1=C(c2ccc(C)cc2)S(=O)(=O)N=C1N1CCC(C(=O)Nc2ccccc2C(=O)OC)CC1,inconclusive: -10.4% [at 46 µM],–
CCn1c(=N)n(CC(=O)c2cccc([N+](=O)[O-])c2)c2ccccc21,inactive: 2.46%,–
Cc1ccc(Nc2ccc(N3CCN(C(=O)c4ccc([N+](=O)[O-])cc4Cl)CC3)nn2)cc1,inconclusive: -13.2% [at 46 µM],–
COc1ccc(-n2ccn(CC(=O)Nc3ccccc3C(F)(F)F)c(=O)c2=O)cc1OC,inactive: 5.2% [at 46 µM],–
CC(/C=C1\SC(=S)N(C(C(=O)O)C(C)C)C1=O)=C\c1ccccc1 (centres undefined),inconclusive: -7.51% [at 46 µM],–
O=C(NCC(c1cccnc1)N1CCN(c2ccc(F)cc2)CC1)c1ccc(F)cc1 (centres undefined),inconclusive: -45.5%,–
COc1ccccc1C(=O)NCC(=O)N/N=C/c1cn[nH]c1-c1ccccc1,–,"inconclusive: 8.91 µM [inhibitor, partial curve]"
CCOC(=O)Cc1c(C)nc2c(-c3ccc(Cl)cc3)c[nH]n2c1=O,inconclusive: -38.5%,–
Cc1c(Cl)cccc1NC(=O)CSc1nc(=O)n(CCN2CCOCC2)c2c1CCC2,inconclusive: -6.21% [at 46 µM],–
O=C1c2ccccc2-c2nnc(-c3ccccc3)cc21,inactive: 1.14% [at 0.0737 µM],–
O=C(CSc1ncn[nH]1)CSc1ncn[nH]1,inactive: -3.34% [at 46 µM],–
COC(=O)C1=C(C)N(CC2CC2)C(=O)N[C@H]1c1ccc(Br)cc1,inconclusive: -0.261%,–
COc1cc(/C=N/Nc2ccc3ccccc3c2)ccc1OC(=O)c1ccco1,–,"inconclusive: 35.5 µM [falling, single point]"
COc1ccc(CCN(Cc2cc3cc(C)cc(C)c3nc2Cl)C(=O)C2CC2)cc1,inconclusive: -34.3%,–
OC(CN1CCN(c2cccc(C(F)(F)F)c2)CC1)c1c[nH]c2ccccc12 (centres undefined),inconclusive: -1.64% [at 0.0737 µM],–

SMILES,"ratio change, negative = inhibition",Potency
O=C(CN1CCCC1)N1CCCC(c2ccc(F)cc2)c2ccc(F)cc21 (centres undefined),inconclusive: 4.02%,–
S=C(NCc1ccc(Cl)cc1)NC1CCN(Cc2ccccc2)CC1,inconclusive: -31.8% [at 46 µM],–
CC(NC(=S)Nc1ccc([N+](=O)[O-])cc1)c1ccncc1 (centres undefined),inconclusive: -15.7% [at 46 µM],–
CCCC(=O)Nc1ncnc2c1ncn2[C@@H]1O[C@H]2COP(=O)(O)O[C@@H]2[C@@H]1OC(=O)CCC,inconclusive: 0.768%,–
Cc1ccnc(NC(c2ccccn2)c2c(C)[nH]c3ccccc23)c1 (centres undefined),inconclusive: -41.5% [at 46 µM],–
Cc1n[nH]c(C)c1Sc1ccccc1N=Cc1cc([N+](=O)[O-])ccc1O,inactive: 15.2%,–
COCCN1C(=O)C(=O)/C(=C(/O)c2ccc(C)cc2)C1c1ccccn1 (centres undefined),inconclusive: 15.1% [at 46 µM],–
Cc1cccc(NC(=S)NNC(=O)COc2ccc(Cl)cc2Cl)c1,inactive: -1.03%,–
Cc1ccc(CSCCNC(=O)c2cccc([N+](=O)[O-])c2)cc1,–,"inconclusive: 35.5 µM [fluorescent, single point]"
O=C(CSc1nn(-c2ccc(F)cc2)c(=S)s1)NC(=O)NCc1ccco1,–,"inconclusive: 35.5 µM [fluorescent, single point]"
COc1cc2c(C(=O)N3CCN(Cc4ccc5c(c4)OCO5)CC3)cn(C)c(=O)c2cc1OC,inactive: -2.23%,–
CCn1ncc(Br)c1C(=O)Nc1sc2c(c1C(N)=O)CCC2,inconclusive: 7.89%,–
CC1CN(C)C(c2ccccc2)C(C)C12NC(=O)NC2=O (centres undefined),inconclusive: 16.4%,–
Oc1ccc(N=Nc2n[nH]c(-c3ccc(Cl)cc3)n2)cc1,inconclusive: -21.8%,–
CCNc1nc(SCCOc2ccc(Cl)cc2Cl)nc(N(C)C)n1,inconclusive: -10.9% [at 46 µM],–
Cc1ccccc1C(=O)NNC(=O)c1ccc(F)cc1,inactive: -2.07%,–
CN1C(=O)CC(C(=O)O)SC1=Nc1cc(Cl)cc(Cl)c1 (centres undefined),inconclusive: -7.37%,–
COc1cccc(CNC(=O)c2nnn(CC(=O)Nc3ccc4c(c3)OCO4)c2N)c1,inactive: 16.6% [at 46 µM],–
O=C1NC2(CCC3(CC2)OCCO3)NN1c1ccccc1,inconclusive: 5.86% [at 9.22 µM],–
Cc1cnc(CNc2nc(-c3c(C)noc3C)nc3ccccc23)cn1,inconclusive: -35.4%,–
COC(=O)c1ccc(NC(=O)c2cnn(-c3ccc(Cl)cc3)c2C2CCN(C(=O)OC(C)(C)C)CC2)cc1,inconclusive: -1.21% [at 46 µM],–
C=CCNC(=O)c1ccc(-n2cccc2)cc1,–,"inconclusive: 0.141 µM [rising, single point]"
CC/C(=N/Nc1ccccc1)c1cnnc(-c2ccccc2)n1,inactive: -0.0889%,–
COC(=O)c1sc(N)c(C(=O)OC)c1COC(=O)c1c(C)noc1C,inconclusive: -18.8%,–
O=C(NCC1CCCO1)C(c1ccccn1)N(Cc1ccccc1Cl)C(=O)CN1C(=O)c2ccccc2S1(=O)=O (centres undefined),inconclusive: 17.6% [at 46 µM],–

# Source: PubChem BioAssay AID1487 (National Center for Advancing Translational Sciences (NCATS), 2009)
